Results are given in words; binding and its absence hold for the method and conditions named. Binding can be weak; no strength is given. Sequences can lack the tags named with a protein.
Target: T1, Dehydration-induced 19-1 (DI19-1), fused with BD domain (rice (Oryza sativa)) (UniProt Q688X9)
T1 sequence: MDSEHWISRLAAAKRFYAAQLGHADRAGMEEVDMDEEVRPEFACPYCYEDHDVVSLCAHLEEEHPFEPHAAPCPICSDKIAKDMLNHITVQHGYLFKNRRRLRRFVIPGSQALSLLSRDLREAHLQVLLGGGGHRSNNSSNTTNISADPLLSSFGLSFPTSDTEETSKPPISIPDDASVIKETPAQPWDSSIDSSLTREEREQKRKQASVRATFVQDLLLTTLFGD
Test: two-hybrid; Matchmaker Gold system; co-transformation of both plasmids into Y2HGold; growth on SD/-Trp-Leu, interaction by colony growth on SD/-Trp-Leu-Ade-His with X-α-Gal

Serine carboxypeptidase 46 (SCP46), fused with AD (rice (Oryza sativa)) (enzyme)
binding: binds
